Results of single-concentration screens

The values are deposited in ChEMBL (CHEMBL3988442, “University of Dundee, Small-Polar-MMV Screening Library” (2021)).

Mtb glucose medium: 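Phenotypic screen: M. tuberculosis growth, glucose 7H9 medium, 3 days; the read-out is not stated. Tested at 50 µM. Higher reads as more growth inhibition (inferred: compounds with an IC50 in retests scored well above the rest). About 69,000 compounds were tested under these conditions; 1.1% (about 760) showed 50% or more at least once.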
Mtb cholesterol medium: 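Growth of Mycobacterium tuberculosis over 4 days (cholesterol / DPPC medium with tyloxapol); the read-out is not stated. Tested at 50 µM. Higher reads as more growth inhibition (inferred: compounds with an IC50 in retests scored well above the rest). Of about 69,000 compounds tested this way, about 370 (0.54%) reached 50% or more in at least one test.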

The filed quantity is “Percent Effect” (%).
How 0% and 100% were set is not recorded. Most values in the screen are low, and negative values occur.
The compounds are a random part of those screened.
Two or more numbers in one place are separate tests of the same structure; such repeats can differ widely.

Cc1cccc(C(=O)NCc2cccnc2N(C)C)n1 gave Mtb glucose medium: -1.409%; Mtb cholesterol medium: -1.27%.
[H][C@]12CNC[C@@]1(C(=O)NC1CCN(c3ncccc3C#N)CC1)CN(C)C2 gave Mtb glucose medium: 0.08629%; Mtb cholesterol medium: 7.818%.
Cc1ccc(C(F)(F)F)cc1NC(=O)C1CCCN1 (centres undefined) gave Mtb glucose medium: 1.629%; Mtb cholesterol medium: 7.79%.
CCOc1ccccc1N(C)C(=O)c1cscn1 gave Mtb glucose medium: -0.8467%; Mtb cholesterol medium: -18.32%.
O=C(CN1CCC(c2cccc(F)c2)C1)NCC(F)(F)F (centres undefined) gave Mtb glucose medium: -12.6%; Mtb cholesterol medium: -4.457%.
Cc1c(O)cccc1C(=O)N1CCCC2(C1)C(=O)N(C)c1ccccc12 (centres undefined) gave Mtb glucose medium: -2.779%; Mtb cholesterol medium: 6.894%.
Nc1nccc(C2CCCCN2Cc2cccc(F)c2)n1 (centres undefined) gave Mtb glucose medium: 16.05%; Mtb cholesterol medium: 21.25%.
CCCN1CCC(Cc2noc(-c3ncccc3C)n2)CC1 gave Mtb glucose medium: 11.81%; Mtb cholesterol medium: -6.811% and 8.917%.
O=C(NCc1csc(Br)c1)Nc1cn[nH]c1 gave Mtb glucose medium: 0.9227%; Mtb cholesterol medium: 0.2922%.
COc1ccc([C@@H]2CN(C(=O)CCC(F)(F)F)C[C@H]2NC(C)=O)cc1 gave Mtb glucose medium: -15.1%; Mtb cholesterol medium: -4.041%.
CN1Cc2ccccc2NC(=O)C12CCNC2 (centres undefined) gave Mtb glucose medium: 21.54%; Mtb cholesterol medium: -1.022%.
c1cnc(N2CCC(c3csc(Nc4cnccn4)n3)CC2)nc1 gave Mtb glucose medium: 32.55%; Mtb cholesterol medium: 22.48% and 24.99%.
Cc1ccc(N2CCCC(NCc3cc(C)on3)C2)nn1 (centres undefined) gave Mtb glucose medium: 9.61%; Mtb cholesterol medium: -3.222%.
Br.Cn1cc(CN2CCOC(c3cccc(-c4cncnc4)n3)C2)cn1 (centres undefined) gave Mtb glucose medium: -23.49%; Mtb cholesterol medium: -5.749% and -8.023%.
O=C(CO)N1CCC(F)(F)C2(CCN(c3ccccc3)C2)C1.O=C(O)C(F)(F)F (centres undefined) gave Mtb glucose medium: 2.823% and 4.318%; Mtb cholesterol medium: -57.06%.
CC(C)N1CCc2[nH]nc(C(=O)N3CCN(C)CC3)c2C1.O=C(O)C(F)(F)F.O=C(O)C(F)(F)F.O=C(O)C(F)(F)F gave Mtb glucose medium: 1.172%; Mtb cholesterol medium: -5.278%.
CS(=O)(=O)c1ccccc1NCc1ccc(Cn2ccnc2)cc1 gave Mtb glucose medium: 10.04%; Mtb cholesterol medium: -3.236%.
O=C(NCC(=O)N1CCCC1)c1nn(-c2ccccc2F)cc1O gave Mtb glucose medium: -20.57% and -3.352%; Mtb cholesterol medium: 5.797%.
CC(C)OCCCNC(=O)CN1C=Nc2ccccc2S1(=O)=O gave Mtb glucose medium: -9.99%; Mtb cholesterol medium: 7.081%.
O=C(CCc1ccc(O)cc1)N1CCC(Cc2ccc(CO)cc2)C1 (centres undefined) gave Mtb glucose medium: -16.69% and 0.6152%; Mtb cholesterol medium: 3.922%.
COc1ccc(C2(c3nc(-c4cnn(C)c4)no3)CCOCC2)cc1 gave Mtb glucose medium: 7.176%; Mtb cholesterol medium: 8.18%.
O=C1NC2(CCN(CCc3ccccc3)CC2)CC1c1ccccc1 (centres undefined) gave Mtb glucose medium: -11.2%; Mtb cholesterol medium: -6.63%.
CCc1noc(CC)c1CC(=O)N1CCN(C(=O)C2CCCC2)CC1 gave Mtb glucose medium: 16.39%; Mtb cholesterol medium: -8.125%.
CN(C)C(=O)N1CCc2onc(C(=O)Nc3cccnc3)c2C1.O=C(O)C(F)(F)F gave Mtb glucose medium: 1.996%; Mtb cholesterol medium: 10.65%.
c1cncc(-c2noc(CNc3ncnc4c3CCNCC4)n2)c1 gave Mtb glucose medium: 16.14%; Mtb cholesterol medium: 3.897%.
[H][C@]12CCN(C(=O)c3cnoc3C)[C@@]1([H])CCC(=O)N2CC1CCOCC1 gave Mtb glucose medium: 10.24%; Mtb cholesterol medium: 1.494%.
Cc1cccc(SC2CCN(C(=O)CCCn3cnnn3)CC2)c1 gave Mtb glucose medium: 16.4%; Mtb cholesterol medium: 12.64%.
CCn1cc(NC(=O)C2CCN(Cc3noc(C(C)C)n3)CC2)cn1 gave Mtb glucose medium: -13.45%; Mtb cholesterol medium: -2.841%.
Fc1ccc(Br)c(NCc2nnsc2Cl)c1 gave Mtb glucose medium: 37.26%; Mtb cholesterol medium: 21.48%.
Cc1ccc(CNC(=O)NCc2csc(C)n2)cn1 gave Mtb glucose medium: -2.276%; Mtb cholesterol medium: -10.53%.
Cc1cc(N2CCC(n3cc(CN4CCSCC4)nn3)CC2)ccn1 gave Mtb glucose medium: -22.31% and 2.259%; Mtb cholesterol medium: 16.32%.
Cc1cc(NC(=O)CCN2CCCC2Cn2cccn2)no1 (centres undefined) gave Mtb glucose medium: 26.02%; Mtb cholesterol medium: 14.21%.
O=C(CCOc1ccccc1F)NC1CCCN(c2ccccn2)C1 (centres undefined) gave Mtb glucose medium: -1.924%; Mtb cholesterol medium: 14.04% and 5.537%.

The last 3 entries again:

{"smiles": "Cc1cc(N2CCC(n3cc(CN4CCSCC4)nn3)CC2)ccn1", "Mtb glucose medium": "-22.31 and 2.259", "Mtb cholesterol medium": 16.32}
{"smiles": "Cc1cc(NC(=O)CCN2CCCC2Cn2cccn2)no1", "stereo": "centres undefined", "Mtb glucose medium": 26.02, "Mtb cholesterol medium": 14.21}
{"smiles": "O=C(CCOc1ccccc1F)NC1CCCN(c2ccccn2)C1", "stereo": "centres undefined", "Mtb glucose medium": -1.924, "Mtb cholesterol medium": "14.04 and 5.537"}